According to PMC8699236:
Results are given in words; binding and its absence hold for the method and conditions named. In cells and extracts the contact can be indirect. Here binding means that the protein was enriched with, or labelled near, the bait; the list need not be complete. For some assays here: A no says only that the protein was not detected with the bait. For some assays here: Tags and fused reporters may be left off the sequences shown.

Protein sequences, listed by entry. Tags and fused reporters are not part of them. Lines headed by an entry give the natural chain unless they say otherwise; changes in a name come on top.
UniProt Q96RU7: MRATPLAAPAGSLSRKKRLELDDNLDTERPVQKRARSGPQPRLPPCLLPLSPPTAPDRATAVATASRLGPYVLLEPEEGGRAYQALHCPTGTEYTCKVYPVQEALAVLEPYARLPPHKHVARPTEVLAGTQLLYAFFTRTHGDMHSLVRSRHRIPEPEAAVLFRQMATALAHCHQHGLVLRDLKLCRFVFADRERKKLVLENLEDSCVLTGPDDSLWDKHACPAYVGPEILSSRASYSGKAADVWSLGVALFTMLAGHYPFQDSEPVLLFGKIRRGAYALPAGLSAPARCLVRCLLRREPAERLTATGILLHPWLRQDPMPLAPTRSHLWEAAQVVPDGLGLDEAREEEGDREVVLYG
UniProt Q5TDH0: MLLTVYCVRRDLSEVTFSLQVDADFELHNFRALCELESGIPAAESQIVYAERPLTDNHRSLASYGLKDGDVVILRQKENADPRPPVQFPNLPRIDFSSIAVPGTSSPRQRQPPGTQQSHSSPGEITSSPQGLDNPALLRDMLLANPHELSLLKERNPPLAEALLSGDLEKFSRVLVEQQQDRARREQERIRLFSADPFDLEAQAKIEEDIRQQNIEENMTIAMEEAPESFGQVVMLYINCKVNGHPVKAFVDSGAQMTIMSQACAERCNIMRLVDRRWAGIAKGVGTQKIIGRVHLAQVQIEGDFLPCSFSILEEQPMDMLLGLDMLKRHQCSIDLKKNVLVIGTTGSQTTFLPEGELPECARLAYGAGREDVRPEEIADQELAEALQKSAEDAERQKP
UniProt Q9Y5T5: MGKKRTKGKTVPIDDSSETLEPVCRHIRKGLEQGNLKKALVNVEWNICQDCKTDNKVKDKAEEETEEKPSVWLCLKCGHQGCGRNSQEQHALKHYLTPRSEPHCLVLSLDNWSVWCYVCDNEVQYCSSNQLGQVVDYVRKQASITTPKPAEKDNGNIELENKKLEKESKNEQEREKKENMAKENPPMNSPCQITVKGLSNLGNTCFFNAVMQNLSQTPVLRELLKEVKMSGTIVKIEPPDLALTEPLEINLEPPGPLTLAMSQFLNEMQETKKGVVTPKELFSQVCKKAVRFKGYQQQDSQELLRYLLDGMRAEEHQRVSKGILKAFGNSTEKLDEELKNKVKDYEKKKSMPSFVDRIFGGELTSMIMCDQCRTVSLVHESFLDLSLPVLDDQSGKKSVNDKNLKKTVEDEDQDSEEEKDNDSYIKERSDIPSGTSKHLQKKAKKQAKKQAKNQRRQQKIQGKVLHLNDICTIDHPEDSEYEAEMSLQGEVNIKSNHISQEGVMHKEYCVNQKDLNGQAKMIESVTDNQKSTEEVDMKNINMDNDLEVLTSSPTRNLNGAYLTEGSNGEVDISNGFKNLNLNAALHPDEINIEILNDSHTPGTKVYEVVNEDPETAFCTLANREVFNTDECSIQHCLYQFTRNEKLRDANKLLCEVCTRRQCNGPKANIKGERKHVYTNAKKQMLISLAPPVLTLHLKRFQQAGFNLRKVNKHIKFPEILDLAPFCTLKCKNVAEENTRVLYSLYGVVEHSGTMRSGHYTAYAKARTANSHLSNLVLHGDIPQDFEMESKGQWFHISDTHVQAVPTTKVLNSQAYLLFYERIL
UniProt Q8IWV8: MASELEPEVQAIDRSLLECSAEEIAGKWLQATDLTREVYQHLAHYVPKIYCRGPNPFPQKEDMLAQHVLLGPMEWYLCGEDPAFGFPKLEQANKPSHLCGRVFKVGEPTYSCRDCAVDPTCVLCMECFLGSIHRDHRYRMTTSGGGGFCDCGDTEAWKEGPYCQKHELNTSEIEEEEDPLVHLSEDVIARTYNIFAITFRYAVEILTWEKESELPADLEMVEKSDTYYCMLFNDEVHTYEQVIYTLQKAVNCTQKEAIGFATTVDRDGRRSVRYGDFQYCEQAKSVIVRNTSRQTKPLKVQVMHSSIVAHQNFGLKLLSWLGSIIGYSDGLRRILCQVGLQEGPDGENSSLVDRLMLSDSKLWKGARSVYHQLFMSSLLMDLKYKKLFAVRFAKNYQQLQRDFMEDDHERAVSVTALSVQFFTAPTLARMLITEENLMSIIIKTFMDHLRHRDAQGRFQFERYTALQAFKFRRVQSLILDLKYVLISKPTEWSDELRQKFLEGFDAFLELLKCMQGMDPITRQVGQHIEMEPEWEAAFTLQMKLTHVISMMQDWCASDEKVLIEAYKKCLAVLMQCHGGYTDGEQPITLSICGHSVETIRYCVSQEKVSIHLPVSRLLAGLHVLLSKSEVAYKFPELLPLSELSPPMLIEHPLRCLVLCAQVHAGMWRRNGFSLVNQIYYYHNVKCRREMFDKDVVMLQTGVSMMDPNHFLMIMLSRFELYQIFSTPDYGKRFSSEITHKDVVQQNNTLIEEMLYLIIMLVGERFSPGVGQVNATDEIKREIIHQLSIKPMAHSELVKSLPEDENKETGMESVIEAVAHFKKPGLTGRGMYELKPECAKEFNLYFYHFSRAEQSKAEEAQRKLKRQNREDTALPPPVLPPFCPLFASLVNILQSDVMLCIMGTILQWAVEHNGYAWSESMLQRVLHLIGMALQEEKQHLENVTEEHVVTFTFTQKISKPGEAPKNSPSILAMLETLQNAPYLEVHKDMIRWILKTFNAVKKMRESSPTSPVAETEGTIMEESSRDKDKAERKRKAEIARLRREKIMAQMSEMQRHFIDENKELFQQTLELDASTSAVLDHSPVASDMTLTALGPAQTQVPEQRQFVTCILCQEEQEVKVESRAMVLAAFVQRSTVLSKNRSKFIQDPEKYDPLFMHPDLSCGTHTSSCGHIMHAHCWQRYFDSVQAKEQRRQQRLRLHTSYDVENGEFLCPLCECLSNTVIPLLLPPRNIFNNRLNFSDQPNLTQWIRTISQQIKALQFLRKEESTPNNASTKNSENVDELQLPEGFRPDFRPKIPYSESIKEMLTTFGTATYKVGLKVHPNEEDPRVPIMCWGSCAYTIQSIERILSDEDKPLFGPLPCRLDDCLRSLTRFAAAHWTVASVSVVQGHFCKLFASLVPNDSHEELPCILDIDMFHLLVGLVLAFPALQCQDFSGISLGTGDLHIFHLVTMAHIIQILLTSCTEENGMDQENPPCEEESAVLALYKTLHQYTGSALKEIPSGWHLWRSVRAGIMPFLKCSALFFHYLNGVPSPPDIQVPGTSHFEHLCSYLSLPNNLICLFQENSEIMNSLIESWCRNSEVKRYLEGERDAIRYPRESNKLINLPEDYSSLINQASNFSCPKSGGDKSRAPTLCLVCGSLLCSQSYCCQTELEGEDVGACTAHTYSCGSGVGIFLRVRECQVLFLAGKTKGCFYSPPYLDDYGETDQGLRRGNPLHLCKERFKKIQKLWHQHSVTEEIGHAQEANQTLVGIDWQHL
UniProt Q09472: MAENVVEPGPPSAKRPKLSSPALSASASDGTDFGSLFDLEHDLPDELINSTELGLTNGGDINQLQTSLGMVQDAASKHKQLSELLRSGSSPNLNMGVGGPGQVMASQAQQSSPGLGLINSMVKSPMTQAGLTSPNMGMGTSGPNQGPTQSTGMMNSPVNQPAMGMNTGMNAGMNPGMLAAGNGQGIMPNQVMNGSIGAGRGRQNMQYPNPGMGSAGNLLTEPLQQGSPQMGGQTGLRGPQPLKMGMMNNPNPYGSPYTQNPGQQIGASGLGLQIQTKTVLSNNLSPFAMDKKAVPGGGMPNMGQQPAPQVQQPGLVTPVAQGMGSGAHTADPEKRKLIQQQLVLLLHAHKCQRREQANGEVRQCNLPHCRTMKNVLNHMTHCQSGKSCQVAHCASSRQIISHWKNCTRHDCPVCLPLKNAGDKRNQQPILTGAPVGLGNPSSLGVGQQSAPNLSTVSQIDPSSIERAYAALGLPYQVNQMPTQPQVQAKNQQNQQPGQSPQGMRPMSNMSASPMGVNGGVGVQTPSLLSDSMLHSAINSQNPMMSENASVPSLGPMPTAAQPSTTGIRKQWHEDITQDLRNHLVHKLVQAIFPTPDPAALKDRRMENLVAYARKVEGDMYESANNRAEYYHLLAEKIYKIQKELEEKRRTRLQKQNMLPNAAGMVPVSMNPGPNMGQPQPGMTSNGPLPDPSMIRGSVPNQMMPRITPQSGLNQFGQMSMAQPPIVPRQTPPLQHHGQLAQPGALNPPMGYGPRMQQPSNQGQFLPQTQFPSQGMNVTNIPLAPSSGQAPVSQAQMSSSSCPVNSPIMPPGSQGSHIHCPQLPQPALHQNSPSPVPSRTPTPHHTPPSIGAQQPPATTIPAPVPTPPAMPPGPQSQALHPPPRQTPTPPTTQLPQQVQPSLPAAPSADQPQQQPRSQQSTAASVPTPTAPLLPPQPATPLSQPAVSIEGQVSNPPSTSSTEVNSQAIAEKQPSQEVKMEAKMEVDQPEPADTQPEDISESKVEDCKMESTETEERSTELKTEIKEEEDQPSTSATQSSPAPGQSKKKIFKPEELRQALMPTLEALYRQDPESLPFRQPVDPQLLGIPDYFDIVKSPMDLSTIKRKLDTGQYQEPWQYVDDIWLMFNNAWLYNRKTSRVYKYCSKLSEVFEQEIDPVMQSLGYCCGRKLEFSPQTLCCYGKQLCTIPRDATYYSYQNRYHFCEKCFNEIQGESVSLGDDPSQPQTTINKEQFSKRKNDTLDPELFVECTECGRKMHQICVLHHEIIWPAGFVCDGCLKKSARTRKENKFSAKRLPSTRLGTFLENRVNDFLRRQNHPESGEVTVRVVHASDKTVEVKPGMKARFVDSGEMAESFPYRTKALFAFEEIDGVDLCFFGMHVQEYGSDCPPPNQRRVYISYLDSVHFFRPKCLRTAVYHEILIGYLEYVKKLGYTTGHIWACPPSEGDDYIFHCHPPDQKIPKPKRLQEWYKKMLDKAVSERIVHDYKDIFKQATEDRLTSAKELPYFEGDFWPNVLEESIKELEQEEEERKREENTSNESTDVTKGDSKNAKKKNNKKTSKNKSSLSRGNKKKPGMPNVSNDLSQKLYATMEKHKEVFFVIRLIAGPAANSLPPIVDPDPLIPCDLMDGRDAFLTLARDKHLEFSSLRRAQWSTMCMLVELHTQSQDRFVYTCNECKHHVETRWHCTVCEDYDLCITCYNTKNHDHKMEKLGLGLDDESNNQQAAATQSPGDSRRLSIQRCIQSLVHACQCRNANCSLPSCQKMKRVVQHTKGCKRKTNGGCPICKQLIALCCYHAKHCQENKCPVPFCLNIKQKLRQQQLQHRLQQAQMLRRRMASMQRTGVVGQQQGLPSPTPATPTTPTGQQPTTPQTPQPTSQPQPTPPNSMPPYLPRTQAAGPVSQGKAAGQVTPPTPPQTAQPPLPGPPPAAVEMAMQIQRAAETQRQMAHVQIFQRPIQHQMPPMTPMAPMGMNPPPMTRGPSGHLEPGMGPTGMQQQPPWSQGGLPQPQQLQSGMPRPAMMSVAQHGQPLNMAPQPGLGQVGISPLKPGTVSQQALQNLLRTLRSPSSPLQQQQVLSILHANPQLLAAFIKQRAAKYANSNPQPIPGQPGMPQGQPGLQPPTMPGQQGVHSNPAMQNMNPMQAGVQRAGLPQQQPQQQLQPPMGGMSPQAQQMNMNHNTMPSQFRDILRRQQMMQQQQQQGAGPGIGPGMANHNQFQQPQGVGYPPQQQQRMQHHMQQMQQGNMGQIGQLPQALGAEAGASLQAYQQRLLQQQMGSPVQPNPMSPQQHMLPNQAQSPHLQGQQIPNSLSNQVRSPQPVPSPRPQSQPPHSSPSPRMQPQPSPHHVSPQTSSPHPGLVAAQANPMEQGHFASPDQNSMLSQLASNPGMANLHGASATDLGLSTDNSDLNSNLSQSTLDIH

T1: TRIB1-tGFP (human) (UniProt Q96RU8)
T1 sequence: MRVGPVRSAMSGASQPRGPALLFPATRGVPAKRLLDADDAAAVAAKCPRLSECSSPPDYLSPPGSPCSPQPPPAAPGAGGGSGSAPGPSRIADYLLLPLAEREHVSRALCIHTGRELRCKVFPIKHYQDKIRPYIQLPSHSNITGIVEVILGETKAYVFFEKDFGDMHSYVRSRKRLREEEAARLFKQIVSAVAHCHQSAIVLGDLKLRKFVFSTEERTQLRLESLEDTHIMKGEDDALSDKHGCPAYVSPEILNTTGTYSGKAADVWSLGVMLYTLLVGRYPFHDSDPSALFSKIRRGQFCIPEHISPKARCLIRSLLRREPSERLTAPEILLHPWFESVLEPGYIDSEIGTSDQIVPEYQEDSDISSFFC

T2: TRIB1 GFP-fusion protein (human) (UniProt Q96RU8)
T2 sequence: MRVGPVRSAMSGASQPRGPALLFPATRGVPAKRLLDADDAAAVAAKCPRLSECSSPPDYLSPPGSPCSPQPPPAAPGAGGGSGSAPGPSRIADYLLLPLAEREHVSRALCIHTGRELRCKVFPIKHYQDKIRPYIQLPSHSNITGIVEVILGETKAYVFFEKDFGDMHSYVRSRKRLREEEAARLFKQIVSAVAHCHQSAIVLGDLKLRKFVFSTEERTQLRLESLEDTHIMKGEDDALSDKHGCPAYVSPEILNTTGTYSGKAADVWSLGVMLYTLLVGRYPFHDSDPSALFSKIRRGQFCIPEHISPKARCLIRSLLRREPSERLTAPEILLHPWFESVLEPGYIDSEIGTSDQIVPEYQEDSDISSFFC

T3: TRIB2 GFP-fusion protein (human) (UniProt Q92519)
T3 sequence: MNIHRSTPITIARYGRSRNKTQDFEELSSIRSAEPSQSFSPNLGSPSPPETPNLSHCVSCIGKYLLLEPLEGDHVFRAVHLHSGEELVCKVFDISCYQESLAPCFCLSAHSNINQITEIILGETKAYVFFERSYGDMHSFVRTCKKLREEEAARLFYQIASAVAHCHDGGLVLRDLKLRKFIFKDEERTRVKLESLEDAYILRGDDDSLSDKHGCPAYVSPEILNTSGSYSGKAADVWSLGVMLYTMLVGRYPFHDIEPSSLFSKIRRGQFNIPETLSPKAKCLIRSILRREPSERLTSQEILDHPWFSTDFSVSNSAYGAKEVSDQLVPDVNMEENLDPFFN


Columns and labels:
[1] = target: TRIB3-ΔN-terminal (human) (UniProt Q96RU7); assay: affinity purification with mass spectrometry; GFP-fusion bait from lysate of transfected HEK293T cells on GFP-Trap beads, 2 h at 4 °C; lysis buffer 50 mM Tris pH 8.0, 1 mM EDTA, 0.1% NP40, 250 mM NaCl, 10% glycerol; on-bead digestion, LC-MS, label-free, against GFP control (or mutant against mutant or wild type)
[2] = target: TRIB3-ΔC-terminal (human) (UniProt Q96RU7); assay: as above
TRIB1-tGFP (human) = target: T1, TRIB1-tGFP (human); assay: affinity purification with mass spectrometry; tGFP-fusion bait from lysate of stable MCF7 cells induced with 2 μg/mL doxycycline for 24 h, on turboGFP-Trap beads; LC-MS, label-free, against tGFP control
[3] = target: T2, TRIB1 GFP-fusion protein (human); assay: affinity purification with mass spectrometry; GFP-fusion bait from lysate of transfected HEK293T cells on GFP-Trap beads, 2 h at 4 °C; lysis buffer 50 mM Tris pH 8.0, 1 mM EDTA, 0.1% NP40, 250 mM NaCl, 10% glycerol; on-bead digestion, LC-MS, label-free, against GFP control (or mutant against mutant or wild type)
[4] = target: T3, TRIB2 GFP-fusion protein (human); assay: as above

Molecule | binding [1] | binding [2] | further results
DNA Damage 1 Homolog 2 (from UniProt Q5TDH0 1-399) | binds |  | 
Ubiquitin Specific Peptidase 16 (from UniProt Q9Y5T5 1-823) | binds |  | 
Ubiquitin Protein Ligase E3 Component N-Recognin 2 (from UniProt Q8IWV8 1-1755) | binds |  | 
Dedicator of Cytokinases 11 (from UniProt Q5JSL3 1-2073) | binds |  | 
SPEN Family Transcriptional Repressor (from UniProt Q96T58 1-3664) | no binding | binds | 
E1A Binding Protein P300 (from UniProt Q09472 1-2414) | no binding | binds | 
Serine/Threonine Kinase 40 (protein, UniProt Q8N2I9 1-435) MKRRASDRGAGETSARAKALGSGISGNNAKRAGPFILGPRLGNSPVPSIVQCLARKDGTDDFYQLKILTLEERGDQGIESQEERQGKMLLHTEYSLLSLLHTQDGVVHHHGLFQDRTCEIVEDTESSRMVKKMKKRICLVLDCLCAHDFSDKTADLINLQHYVIKEKRLSERETVVIFYDVVRVVEALHQKNIVHRDLKLGNMVLNKRTHRITITNFCLGKHLVSEGDLLKDQRGSPAYISPDVLSGRPYRGKPSDMWALGVVLFTMLYGQFPFYDSIPQELFRKIKAAEYTIPEDGRVSENTVCLIRKLLVLDPQQRLAAADVLEALSAIIASWQSLSSLSGPLQVVPDIDDQMSNADSSQEAKVTEECSQYEFENYMRQQLLLAEEKSSIHDARSWVPKRQFGSAPPVRRLGHDAQPMTSLDTAILAQRYLRK | binds |  | binding (TRIB1-tGFP (human)): binds; binding [3]: binds; binding [4]: binds
Poly(A)-Specific Ribonuclease (protein, UniProt O95453 1-639) MEIIRSNFKSNLHKVYQAIEEADFFAIDGEFSGISDGPSVSALTNGFDTPEERYQKLKKHSMDFLLFQFGLCTFKYDYTDSKYITKSFNFYVFPKPFNRSSPDVKFVCQSSSIDFLASQGFDFNKVFRNGIPYLNQEEERQLREQYDEKRSQANGAGALSYVSPNTSKCPVTIPEDQKKFIDQVVEKIEDLLQSEENKNLDLEPCTGFQRKLIYQTLSWKYPKGIHVETLETEKKERYIVISKVDEEERKRREQQKHAKEQEELNDAVGFSRVIHAIANSGKLVIGHNMLLDVMHTVHQFYCPLPADLSEFKEMTTCVFPRLLDTKLMASTQPFKDIINNTSLAELEKRLKETPFNPPKVESAEGFPSYDTASEQLHEAGYDAYITGLCFISMANYLGSFLSPPKIHVSARSKLIEPFFNKLFLMRVMDIPYLNLEGPDLQPKRDHVLHVTFPKEWKTSDLYQLFSAFGNIQISWIDDTSAFVSLSQPEQVKIAVNTSKYAESYRIQTYAEYMGRKQEEKQIKRKWTEDSWKEADSKRLNPQCIPYTLQNHYYRNNSFTAPSTVGKRNLSPSQEEAGLEDGVSGEISDTELEQTDSCAEPLSEGRKKAKKLKRMKKELSPAGSISKNSPATLFEVPDTW |  | binds | 
Gen1 Holliday Junction 5′ Flap Endonuclease (protein, UniProt Q17RS7 1-908) MGVNDLWQILEPVKQHIPLRNLGGKTIAVDLSLWVCEAQTVKKMMGSVMKPHLRNLFFRISYLTQMDVKLVFVMEGEPPKLKADVISKRNQSRYGSSGKSWSQKTGRSHFKSVLRECLHMLECLGIPWVQAAGEAEAMCAYLNAGGHVDGCLTNDGDTFLYGAQTVYRNFTMNTKDPHVDCYTMSSIKSKLGLDRDALVGLAILLGCDYLPKGVPGVGKEQALKLIQILKGQSLLQRFNRWNETSCNSSPQLLVTKKLAHCSVCSHPGSPKDHERNGCRLCKSDKYCEPHDYEYCCPCEWHRTEHDRQLSEVENNIKKKACCCEGFPFHEVIQEFLLNKDKLVKVIRYQRPDLLLFQRFTLEKMEWPNHYACEKLLVLLTHYDMIERKLGSRNSNQLQPIRIVKTRIRNGVHCFEIEWEKPEHYAMEDKQHGEFALLTIEEESLFEAAYPEIVAVYQKQKLEIKGKKQKRIKPKENNLPEPDEVMSFQSHMTLKPTCEIFHKQNSKLNSGISPDPTLPQESISASLNSLLLPKNTPCLNAQEQFMSSLRPLAIQQIKAVSKSLISESSQPNTSSHNISVIADLHLSTIDWEGTSFSNSPAIQRNTFSHDLKSEVESELSAIPDGFENIPEQLSCESERYTANIKKVLDEDSDGISPEEHLLSGITDLCLQDLPLKERIFTKLSYPQDNLQPDVNLKTLSILSVKESCIANSGSDCTSHLSKDLPGIPLQNESRDSKILKGDQLLQEDYKVNTSVPYSVSNTVVKTCNVRPPNTALDHSRKVDMQTTRKILMKKSVCLDRHSSDEQSAPVFGKAKYTTQRMKHSSQKHNSSHFKESGHNKLSSPKIHIKETEQCVRSYETAENEESCFPDSTKSSLSSLQCHKKENNSGTCLDSPLPLRQRLKLRFQST |  | binds | 
Nucleus Accumbens Associated 1 (protein, UniProt Q96RE7 1-527) MAQTLQMEIPNFGNSILECLNEQRLQGLYCDVSVVVKGHAFKAHRAVLAASSSYFRDLFNNSRSAVVELPAAVQPQSFQQILSFCYTGRLSMNVGDQFLLMYTAGFLQIQEIMEKGTEFFLKVSSPSCDSQGLHAEEAPSSEPQSPVAQTSGWPACSTPLPLVSRVKTEQQESDSVQCMPVAKRLWDSGQKEAGGGGNGSRKMAKFSTPDLAANRPHQPPPPQQAPVVAAAQPAVAAGAGQPAGGVAAAGGVVSGPSTSERTSPGTSSAYTSDSPGSYHNEEDEEEDGGEEGMDEQYRQICNMYTMYSMMNVGQTAEKVEALPEQVAPESRNRIRVRQDLASLPAELINQIGNRCHPKLYDEGDPSEKLELVTGTNVYITRAQLMNCHVSAGTRHKVLLRRLLASFFDRNTLANSCGTGIRSSTNDPRRKPLDSRVLHAVKYYCQNFAPNFKESEMNAIAADMCTNARRVVRKSWMPKVKVLKAEDDAYTTFISETGKIEPDMMGVEHGFETASHEGEAGPSAEALQ |  | binds | 
Zinc Finger And BTB Domain 1 (protein, UniProt Q9Y2K1 1-713) MAKPSHSSYVLQQLNNQREWGFLCDCCIAIDDIYFQAHKAVLAACSSYFRMFFMNHQHSTAQLNLSNMKISAECFDLILQFMYLGKIMTAPSSFEQFKVAMNYLQLYNVPDCLEDIQDADCSSSKCSSSASSKQNSKMIFGVRMYEDTVARNGNEANRWCAEPSSTVNTPHNREADEESLQLGNFPEPLFDVCKKSSVSKLSTPKERVSRRFGRSFTCDSCGFGFSCEKLLDEHVLTCTNRHLYQNTRSYHRIVDIRDGKDSNIKAEFGEKDSSKTFSAQTDKYRGDTSQAADDSASTTGSRKSSTVESEIASEEKSRAAERKRIIIKMEPEDIPTDELKDFNIIKVTDKDCNESTDNDELEDEPEEPFYRYYVEEDVSIKKSGRKTLKPRMSVSADERGGLENMRPPNNSSPVQEDAENASCELCGLTITEEDLSSHYLAKHIENICACGKCGQILVKGRQLQEHAQRCGEPQDLTMNGLGNTEEKMDLEENPDEQSEIRDMFVEMLDDFRDNHYQINSIQKKQLFKHSACPFRCPNCGQRFETENLVVEHMSSCLDQDMFKSAIMEENERDHRRKHFCNLCGKGFYQRCHLREHYTVHTKEKQFVCQTCGKQFLRERQLRLHNDMHKGMARYVCSICDQGNFRKHDHVRHMISHLSAGETICQVCFQIFPNNEQLEQHMDVHLYTCGICGAKFNLRKDMRSHYNAKHLKRT | no binding | binds | 
